Experimental data reported in PubChem BioAssay AID330 (DTP/NCI, 2004).
The list does not hold the whole screen: it is rich in T/C values a quarter to a half above the control, in often repeated tests (any T/C) and in doses without a T/C. Other doses and runs of a compound stand elsewhere. T/C gives the treated animals as a percentage of the vehicle group. Some entries give survivors of the animals treated and no T/C: the source holds a T/C of zero for them, seemingly a mark for toxic or unscored doses. Some doses without a T/C left all or most animals alive at the check, yet need not have been tolerated: the source hardly ever lists a survival T/C far under the control, and the zero likely stands for such cases as well. Survivors were counted at the toxicity check, usually on the fifth day, unless a day is given; later deaths do not show. Schedules are NCI's codes, taken here to give the interval after Q, in days (D) or hours (H), and the number of doses after X. For survival time, the PubChem record calls one and a half times the control and up active, and a quarter to a half above the control has no call in these data; cut-offs in other NCI protocols can differ. Some doses were run more than once; their values stand side by side, smallest first. Some T/C values carry the count of animals alive at the toxicity check (mostly the fifth day); where none is given, no animal had died by that day.

Tested on: P388 leukemia ip, CD2F1 mice, survival T/C
Assay: NCI In Vivo Anticancer Drug Screen. Data for tumor model P388 Leukemia (intraperitoneal) in CD2F1 (CDF1) mice
Settings: T/C endpoint: median survival time, higher T/C = longer survival
[1] = dose: 50.0 mg/kg/injection, schedule: Q01DX009 (ip), vehicle: saline
[2] = dose: 100.0 mg/kg/injection, schedule: Q01DX009 (ip), vehicle: saline
[3] = dose: 200.0 mg/kg/injection, schedule: Q01DX009 (ip), vehicle: saline
[4] = dose: 200.0 mg/kg/injection, schedule: Q01DX009 (ip), vehicle: Klucel (hydroxypropylcellulose) (HPC)
[5] = dose: 50.0 mg/kg/injection, schedule: Q01DX009 (ip), vehicle: Klucel (hydroxypropylcellulose) (HPC)
[6] = dose: 100.0 mg/kg/injection, schedule: Q01DX009 (ip), vehicle: Klucel (hydroxypropylcellulose) (HPC)
[7] = dose: 200.0 mg/kg/injection, schedule: Q01DX005 (ip), vehicle: Klucel (hydroxypropylcellulose) (HPC)

`COC(=O)c1[nH]cnc1/N=N\N(CCF)CCF` was tested. Which T/C (dose: 30.0 mg/kg/injection, schedule: Q04DX003 (ip), vehicle: saline with Tween-80) did it give?
The T/C was 130 % of control [5 of 6 alive].

And the survivor count (dose: 100.0 mg/kg/injection, schedule: Q04DX003 (ip), vehicle: saline with Tween-80)?
Its survivor count is 2 of 6.

What does the source list for `CCCC#CC#N`?
T/C (dose: 25.0 mg/kg/injection, schedule: Q01DX009 (ip), vehicle: suspension in saline): 126 % of control; T/C (dose: 50.0 mg/kg/injection, schedule: Q01DX009 (ip), vehicle: suspension in saline): 142 % of control; T/C (dose: 100.0 mg/kg/injection, schedule: Q01DX009 (ip), vehicle: olive oil, sesame oil, peanut oil): 135 % of control; T/C (dose: 100.0 mg/kg/injection, schedule: Q01DX009 (ip), vehicle: suspension in saline): 135 % of control; survivor count (dose: 200.0 mg/kg/injection, schedule: Q01DX009 (ip), vehicle: olive oil, sesame oil, peanut oil): 1 of 6; survivor count (dose: 200.0 mg/kg/injection, schedule: Q01DX009 (ip), vehicle: suspension in saline): 3 of 6

How did the survivor count (dose: 200.0 mg/kg/injection, schedule: Q01DX009 (ip), vehicle: saline with Tween-80) turn out when `CC1=C2C(=O)[C@H]3[C@@H](CC=C4C[C@@H](O)CC[C@@]43C)[C@@H]2CC[C@]12O[C@@H]1C[C@H](C)CN[C@H]1[C@H]2C` was run?
Its survivor count is 6 of 6.

With `CC[n+]1cccc2ccccc21` as the molecule, how does the survivor count (dose: 400.0 mg/kg/injection, schedule: Q04DX003 (ip), vehicle: saline with Tween-80) read?
Its survivor count is 0 of 6.

What does the source list for `CCC[CH2][Sn]([CH2]CCC)([O]C=O)[O]C=O`?
survivor count (dose: 0.39 mg/kg/injection, schedule: Q01DX009 (ip), vehicle: saline): 4 of 6; survivor count (dose: 0.79 mg/kg/injection, schedule: Q01DX009 (ip), vehicle: saline): 6 of 6; survivor count (dose: 1.56 mg/kg/injection, schedule: Q01DX009 (ip), vehicle: saline): 6 of 6; T/C (dose: 3.12 mg/kg/injection, schedule: Q01DX009 (ip), vehicle: saline): 90, 91, 101, 128 % of control; survivor count (dose: 6.25 mg/kg/injection, schedule: Q01DX009 (ip), vehicle: saline): 6 of 6; survivor count (dose: 12.5 mg/kg/injection, schedule: Q01DX009 (ip), vehicle: saline): 0 of 6; survivor count [1]: 0 of 6; survivor count [2]: 0 of 6; survivor count [3]: 0 of 6

What does the source list for `CCOCC(=O)N[C@H]1CCc2cc(OC)c(OC)c(OC)c2-c2ccc(SC)c(=O)cc21`?
T/C (dose: 0.38 mg/kg/injection, schedule: Q01DX009 (ip), vehicle: Klucel (hydroxypropylcellulose) (HPC)): 130 [5 of 6 alive] and 132 % of control [5 of 6 alive]; survivor count (dose: 3.0 mg/kg/injection, schedule: Q01DX009 (ip), vehicle: Klucel (hydroxypropylcellulose) (HPC)): 5 of 6; survivor count (dose: 6.0 mg/kg/injection, schedule: Q01DX009 (ip), vehicle: Klucel (hydroxypropylcellulose) (HPC)): 4 of 6

`COC1=CC(=O)C(O)=C(CC2(C)C(C)CCC3(C)C2CCCC3(C)C)C1=O` (stereo not drawn) was tested. Which survivor count [4] did it give?
Its survivor count is 3 of 6.

For `COc1cccc2c1C(=O)c1c(O)c3c(c(O)c1C2=O)C[C@@](O)(/C(C)=N/NC(=O)c1ccc(N(C)C)cc1)C[C@@H]3OC1CC(N)C(O)C(C)O1` (stereo partly drawn), which T/C (dose: 0.25 mg/kg/injection, schedule: Q01DX009 (ip), vehicle: water) is on record?
Its T/C is 133 % of control.

And the T/C (dose: 2.5 mg/kg/injection, schedule: Q01DX001 (ip), vehicle: water)?
Its T/C is 138 % of control.

What about the T/C (dose: 5.0 mg/kg/injection, schedule: Q01DX001 (ip), vehicle: water) of the same molecule?
The T/C was 142 % of control.

And the T/C (dose: 8.0 mg/kg/injection, schedule: Q01DX009 (ip), vehicle: water)?
The T/C was 136 % of control.

What about the survivor count (dose: 16.0 mg/kg/injection, schedule: Q01DX009 (ip), vehicle: water) of the same molecule?
Its survivor count is 6 of 6.

And the survivor count (dose: 80.0 mg/kg/injection, schedule: Q01DX001 (ip), vehicle: water)?
The survivor count was 3 of 6.

Which survivor count (dose: 120.0 mg/kg/injection, schedule: Q01DX005 (ip), vehicle: Klucel (hydroxypropylcellulose) (HPC)) does the source give for `Cc1nc2cc(N(C)C)ccc2c(Cl)c1C(N)=O` here?
The survivor count was 2 of 6.

And the survivor count (dose: 240.0 mg/kg/injection, schedule: Q01DX005 (ip), vehicle: Klucel (hydroxypropylcellulose) (HPC))?
Its survivor count is 0 of 6.

What does the source list for `CC(C)NCC(O)COc1ccc(O)c(O)c1` (stereo not drawn)?
T/C [1]: 131 % of control; T/C [3]: 125 % of control [5 of 6 alive]

For `Clc1ccc(-c2csc3cccc[n+]23)cc1`, which survivor count [5] is on record?
Its survivor count is 0 of 6.

What about the survivor count [6] of the same molecule?
Its survivor count is 1 of 6.

And the survivor count [4]?
The survivor count was 0 of 6.

For `CC(C)([CH2][Sn]([Cl])([CH2]C(C)(C)c1ccccc1)[O][Sn]([Cl])([CH2]C(C)(C)c1ccccc1)[CH2]C(C)(C)c1ccccc1)c1ccccc1`, which T/C (dose: 12.5 mg/kg/injection, schedule: Q01DX005 (ip), vehicle: Klucel (hydroxypropylcellulose) (HPC)) is on record?
Its T/C is 133 % of control.

And the survivor count (dose: 50.0 mg/kg/injection, schedule: Q01DX005 (ip), vehicle: Klucel (hydroxypropylcellulose) (HPC))?
Its survivor count is 5 of 6.

What about the survivor count (dose: 100.0 mg/kg/injection, schedule: Q01DX005 (ip), vehicle: Klucel (hydroxypropylcellulose) (HPC)) of the same molecule?
The survivor count was 1 of 6.

What about the survivor count [7] of the same molecule?
Its survivor count is 0 of 6.

For `C=c1[nH]c(=O)c(=C)[nH]c1=O`, which survivor count (dose: 200.0 mg/kg/injection, schedule: Q01DX009 (ip), vehicle: other) is on record?
The survivor count was 2 of 6.

Which survivor count [5] does the source give for `CSC(=S)Nc1nc2ccc(Cl)cc2s1` here?
The survivor count was 6 of 6.

And the survivor count [6]?
The survivor count was 6 of 6.

And the survivor count [4]?
Its survivor count is 4 of 6.

Which survivor count [7] does the source give for `COc1cc(C(N)CCc2ccc3c(c2)OCO3)cc(OC)c1OC` (stereo not drawn) here?
Its survivor count is 0 of 5.

Which survivor count [3] does the source give for `CN(C)CCC(=O)c1cccs1` here?
Its survivor count is 0 of 6.

What about the survivor count (dose: 400.0 mg/kg/injection, schedule: Q01DX009 (ip), vehicle: saline) of the same molecule?
The survivor count was 0 of 6.

What does the source list for `COc1ccc(C(NCCn2cnc3c2c(=O)n(C)c(=O)n3C)c2ccccc2)cc1` (stereo not drawn)?
survivor count (dose: 50.0 mg/kg/injection, schedule: Q01DX005 (ip), vehicle: other): 0 of 5; survivor count (dose: 100.0 mg/kg/injection, schedule: Q01DX005 (ip), vehicle: other): 0 of 5; survivor count (dose: 200.0 mg/kg/injection, schedule: Q01DX005 (ip), vehicle: other): 0 of 5

What does the source list for `COC1=C(OC)C(=O)C(SCCCc2ccccc2)=CC1=O`?
survivor count (dose: 100.0 mg/kg/injection, schedule: Q04DX002 (ip), vehicle: saline with Tween-80): 1 of 6; survivor count (dose: 200.0 mg/kg/injection, schedule: Q04DX002 (ip), vehicle: saline with Tween-80): 0 of 6; survivor count (dose: 400.0 mg/kg/injection, schedule: Q04DX002 (ip), vehicle: saline with Tween-80): 0 of 6

With `CN(C)C1CC2CCCCC2CC1O` (stereo not drawn) as the molecule, how does the survivor count (dose: 400.0 mg/kg/injection, schedule: Q01DX001 (ip), vehicle: saline) read?
Its survivor count is 1 of 6.

For `FP1(c2ccccc2)(c2ccccc2)Nc2cc(C(c3ccccc3)(c3ccccc3)c3ccccc3)ccc2O1`, which survivor count (dose: 50.0 mg/kg/injection, schedule: Q01DX009 (ip), vehicle: saline with Tween-80) is on record?
The survivor count was 6 of 6.

What about the survivor count (dose: 100.0 mg/kg/injection, schedule: Q01DX009 (ip), vehicle: saline with Tween-80) of the same molecule?
Its survivor count is 6 of 6.

Which survivor count (dose: 0.25 mg/kg/injection, schedule: Q01DX009 (ip), vehicle: saline with Tween-80) does the source give for `C/C=C1\C(=O)OC23C=CC4C(C(=O)OC)C(O)OC(OC12)C43` (stereo not drawn) here?
The survivor count was 6 of 6.

And the survivor count (dose: 0.5 mg/kg/injection, schedule: Q01DX009 (ip), vehicle: saline with Tween-80)?
Its survivor count is 6 of 6.

Which survivor count (dose: 400.0 mg/kg/injection, schedule: Q04DX003 (ip), vehicle: Klucel (hydroxypropylcellulose) (HPC)) does the source give for `COC1C=C(Br)C(=O)C(C)O1` (stereo not drawn) here?
Its survivor count is 0 of 6.

Which results are given for `O=C1C(Cl)=C(n2c3ccccc3c3ccccc32)C(=O)c2ccccc21`?
survivor count (dose: 25.0 mg/kg/injection, schedule: Q01DX005 (ip), vehicle: saline with Tween-80): 3 of 6; survivor count (dose: 50.0 mg/kg/injection, schedule: Q01DX005 (ip), vehicle: saline with Tween-80): 0 of 6; survivor count (dose: 100.0 mg/kg/injection, schedule: Q01DX005 (ip), vehicle: saline with Tween-80): 0 of 6; survivor count (dose: 200.0 mg/kg/injection, schedule: Q01DX005 (ip), vehicle: saline with Tween-80): 0 of 6

`CC(=O)C(=CN(C)c1ccc([N+](=O)[O-])cc1)C(C)=O` was tested. Which survivor count [1] did it give?
Its survivor count is 6 of 6.

Which results are given for `CC1(C)COCN1COCCOCN1COCC1(C)C`?
T/C (dose: 25.0 mg/kg/injection, schedule: Q01DX009 (ip), vehicle: saline): 130 % of control; T/C [1]: 146 % of control; T/C [2]: 128 % of control; survivor count [3]: 6 of 6
